# Structures can show the parent of a compound that is named as a salt. The list shows a part of the results. Most values come without repeats; read them as rough.
# System: Trypanosoma brucei brucei bloodstream form L262P (kDNA-independent)
# Experiment: viability Z-score (nuclei count per well, median-polish normalised, relative to plate distribution); higher = more viable parasites (negative = growth inhibition)
# Settings: 4 days; compound concentration: 10 µM (some Prestwick/PKE rows may be 1 µM / not distinguished)
row,SMILES,viability Z-score
1,c12N(/C=C(\C(c1cc(c(n2)N1CC(CC1)N)F)=O)/C(=O)O)c1c(cc(cc1)F)F (stereo not drawn) [Tosufloxacin hydrochloride],-3.34
2,CC(C)c1nnc(NC(=O)CCC(=O)O)s1,-5.21
3,[O-][N+](=O)C1=CC(=CC=C1)C=2OC(=CC=2)C([H])(C3=C(O)N/N=C3/C)C4=C(O)N/N=C4/C,-3.04
4,N#C/C2=C(/NC(C)=C(C(=O)NC=1C=CC=CC=1[F])[C@@]2([H])C=3OC=CC=3)[S]CC(=O)C=4C=CC(C)=CC=4,-2.49
5,O=C(NCC=1/C=C(/[Br])C=CC=1OC)CC/C2=N/C(=NO2)C=3[S]C=CC=3,-2.94
6,O=C1Nc2ccccc2/C1=C1/Nc2ccccc2/C1=N\O [Indirubin-3'-monooxime],-2.72
7,C=1(N=CC=CN=1)[S]CCOCCO/C2=C/C=CC=C2,-3.16
8,CC(C)C[C@H](NC(=O)c1cccc(F)c1)c1ccccc1,-1.41
9,O=C1NC(=NC2=C1C4(CC=3C=CC=CC2=3)CCCC4)[S]C(=O)C/C5=C/C=C(/[Cl])C=C5,-4.87
10,O=C(Cn1nc2n(c1=O)-c1cc(Cl)ccc1C1=NCCN12)OC[C@H]1CCCO1,-5.35
11,O=[S](=O)(C=1N=C([S]C=1[Cl])OCC)C2=C/C=C(/C)C=C2,-4.15
12,O=C(/C1=N/OC2=C1COC=3C=CC=CC2=3)N4CCN(CC4)C=5C=C(C=CC=5)C([F])([F])[F],-4.59
13,N#C/C1=C(/N=C(/N)C(C#N)=C1/C3=C/C=2OCOC=2C=C3)OC(C)(C)[H],-2.02

# Sorted by number of heavy atoms (falling): some entries from above
row,SMILES,viability Z-score
5,O=C(NCC=1/C=C(/[Br])C=CC=1OC)CC/C2=N/C(=NO2)C=3[S]C=CC=3,-2.94
8,CC(C)C[C@H](NC(=O)c1cccc(F)c1)c1ccccc1,-1.41
7,C=1(N=CC=CN=1)[S]CCOCCO/C2=C/C=CC=C2,-3.16

# Reference: the supplement of paper PMC8846439
